Hit rate of the full screen: of about 53,000 sequences, about 3,700 (7%) were called active.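 How the source made its calls: active means gene knockdowns whose robust z-score for IL-1 alpha signal is at least 2 or at most -2, so actives lie on both sides; inactive means the rest.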 The list shows a part of the results.
Experiment: Components of the Cytosolic LPS Sensing Pathway: Gene Identification via Genome-wide siRNA Screen;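 further: robust z of the log signal after scaling to non-targeting control siRNA wells of the plate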
Conditions: RAW264.7 macrophages, IL-1a HTRF, actives lie on both sides, screened at 100 nM (by protocol), cells primed 5 h with Pam3CSK4 first
Procedure, shortened: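 Three distinct siRNAs per gene were tested singly at 100 nM in RAW264.7 macrophages. Following Pam3CSK4 priming and 24 hour LipidA transfection, IL-1a secretion was read by HTRF.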

| Sequence | z-score |
| --- | --- |
| GGAGCUAACUGUCAAUGGATT against Usp17la | active: 2.8 |
| GCUGGAGGACUCAUGUUCATT against Dimt1 | inactive: -0.0153 |
| GGAUUAUGAGAUGAAAUCUTT against Serpinb9b | inactive: 0.791 |
| CCUCACACUUCACUACUGATT against Rpain | inactive: -0.221 |
| GCGCAAAAGGACCUAUGAGTT against Rela | inactive: -0.342 |
| GGAACCACACAUUUAAAAUTT against Ctsh | inactive: 0.0631 |
| GCACCUCUACUAUGAGGCUTT against Cfap57 | inactive: -1.9 |
| GGUUUGGGAUGUUCGAGUUTT against Slc25a1 | inactive: -1.1 |
| CCUUUUACUUAGACAUCCUTT against Pstpip2 | inactive: -0.284 |
| GCCAGAAGACUGUAUACCATT against Rp9 | inactive: -0.0396 |
| GGCACAAGGCCUUUAGCACTT against Olfr583 | inactive: -0.0445 |
| CCAGGUGCUAUGAGAUUAGTT against Setd4 | inactive: 1 |
| GGCAGAUGCGUAUCUCAAUTT against Gpr39 | inactive: 0.7 |
| GGUUAGAGGAAAGGUUUAUTT against Htr1f | active: 5.07 |
| GCAUGCUAGAUGUGGUCUGTT against Ccdc117 | inactive: 0.0779 |
| GCAACAAUAUUGCUCUAGATT against Galntl6 | inactive: -0.452 |
| GGAUCAUUAAACAACCUGATT against Nrcam | inactive: -0.186 |
| GCUACAAACCGUUUAAUAATT against Knstrn | inactive: 0.223 |
| GCCUUGUCAUAUGGGUUCCTT against Timm17b | inactive: -0.915 |
| GGUUGCUGGAUGUCAUCUCTT against Hpn | active: -2.05 |
| GGUUUUGGGAAGUUAUUAATT against Lsg1 | inactive: 1.56 |
| CGAUGUACUCCAUGUUGGGTT against Bpifb6 | active: 3.47 |

| Sequence | z-score |
| --- | --- |
| GGGACUUCAUUUUAUUCUGTT against Morc4 | inactive: 0.0714 |
| GGGAUUCCCAAGGAUGAAGTT against Ghrh | inactive: -1.66 |
| CGGCUCUUUCUUGUGGAUATT against Ggta1 | inactive: 0.384 |
| CCUCUUCAACAAACAAGCATT against Zscan22 | inactive: -0.379 |
| GGAAAAUGCCAUUCAUUUUTT against Fam71e2 | inactive: 0.948 |
| GGAAGAAGUUCAAGAUUGATT against Bap1 | inactive: -1.17 |
| GGAGGUAGAAAAGACAAAATT against Jrk | inactive: 1.96 |
| GGGUAAUUGAAUGACUGAGTT against Ppcdc | inactive: 1.96 |
| GGGAGUGCCAAAGUCGAAUTT against D16Ertd472e | inactive: -0.425 |
| GCUCAGUUGGCAUCCUGUUTT against Odf2l | inactive: -0.582 |
| GGUGGAGCUGCUAUCACAUTT against Suco | inactive: 0.751 |
| GGACAUGGGUGAUAAAGUUTT against Acad12 | inactive: -1.59 |
| GGCUCUUGUUGCCUUGUGUTT against Crabp1 | inactive: -1.89 |
| GGCGAACACUAAAAAGGCATT against Zbtb10 | inactive: -1.6 |
| CGUUAAUUGCCCUCAAAGATT against Spon1 | inactive: 1.03 |
| GGUCCUAACCGACAUGUCUTT against Vrk1 | inactive: 0.305 |
| CCUAUACGUGCACCAAUGGTT against Srpx2 | inactive: 0.862 |
| GGACAUUGUUGUUCUUGGUTT against Psma7 | inactive: -0.844 |
| GGAUGAGUCCAAUCUUCUCTT against Anapc4 | inactive: 1.44 |
| CGACCUCACAGUUGACUACTT against Mthfsd | inactive: 1.08 |
| GCGACUACAAGGAUACCCUTT against Krt71 | inactive: 0.169 |
| GGACAAUUUACAAAGAUGCTT against Rnmt | inactive: -0.486 |

| Sequence | z-score |
| --- | --- |
| CCAUGGCUUACGAGAGACATT against Mavs | inactive: -0.884 |
| CGGGCACAUAAUUUACCAATT against Rfx4 | inactive: 0.921 |
| GCUGAUCAGAGACCAUUACTT against Cmss1 | active: -2.26 |
| GGAAAACCCUGAGCAAGAGTT against Olfr916 | inactive: -0.105 |
| GGAUAUUUUUAGUGUCUUGTT against Homer2 | inactive: -1.19 |
| GGUACUCCUAGAACUCUACTT against 2410002F23Rik | inactive: 1.01 |
| GGAUGAAAGUUGUAUGUAUTT against Ctsk | inactive: -0.606 |
| GGCCUGAACAAAGUUACAUTT against Slc22a7 | inactive: 0.252 |
| GCUUCUGUCAUAAUGAUAUTT against Pramel6 | active: -2.33 |
| GUGGACAAGACCUUCCUGUTT against Cmtm5 | inactive: 0.147 |
| GGUGGAACCCAAUGACACCTT against Cers5 | inactive: 1.21 |
| CCAUGUCAAACACCUUAGUTT against Crebzf | inactive: 1.26 |
| GGAAUGGAAUAGCAGAGCUTT against Ramac | inactive: -1.49 |
| GGUUACCGCUAUCGUCAAGTT against Sufu | inactive: -0.364 |
| GGUUUGAGCCACCUACUAUTT against Bco2 | inactive: -0.62 |
| ACUCCCAUGUUGAAUCCAUTT against Olfr1202 | inactive: 1.33 |
| GGGAUUCAUCACUGAAAAGTT against Mmel1 | inactive: -0.0466 |
| GGUAUUUCUACUGUGACAGTT against Olfr1055 | inactive: -0.338 |
| GCCUCUUCAAUCACAUUUATT against Atp6v0a4 | active: 3.27 |
| GGAACCUAUUUUUUCGUAUTT against Gen1 | inactive: -0.322 |
| GGAGACCUUACCACUUGAATT against Ephx1 | inactive: -1.2 |
| CGACAUUGAUAUCGUGCGCTT against Gadd45g | inactive: -0.827 |

| Sequence | z-score |
| --- | --- |
| GGGUUCUGUCACUAUAAUATT against Defb10 | inactive: -0.0651 |
| GACGACUUGAUUGUAAGCATT against Amt | inactive: -0.492 |
| CCAACACAACUGGUAAAAUTT against Plcb4 | inactive: 0.26 |
| GGCCAUUGGCUGGACAAAUTT against Mppe1 | inactive: -0.568 |
| GGUUAACCCAAUGCCAGUGTT against Cyba | inactive: 0.65 |
| CCCUCGAGUGACCAUAGUGTT against Gnptab | inactive: 1.03 |
| GGCUUGAUCCUUAGCUUAATT against Gpld1 | inactive: 0.127 |
| GCGGAGAUGUACACAAAAGTT against Nqo2 | inactive: -1.01 |
| GGGCACCUUAUACCAUAGATT against Bfar | inactive: 0.345 |
| GGAACUGGCCAAGUUUAAATT against Ing3 | inactive: 0.653 |
| GGAAAAUUACUCCACUUUUTT against R3hdm1 | inactive: 1.36 |
| GGAUAUGCACUGUUUUCAATT against Nudt16 | active: 2.28 |
| CCUGUGAGAUAAGCGAAGCTT against Edil3 | inactive: 0.458 |
| GGAUUGGAUUUCUUAGUUCTT against Myo1c | inactive: -0.285 |
| CCACAGUAUCAUGUAACUATT against Il1a | active: -2.23 |
| CCAAGGGUAUGUCCAUCAUTT against Gm5154 | inactive: 0.408 |
| CCCAUUUGAAAUUAGGGUATT against Mief1 | inactive: 0.607 |
| GGCCUCCAGAAACAACUCGTT against Ndst2 | inactive: -1.14 |
| GGAGAAGUACAACGCAGCGTT against Wnt7b | inactive: -0.273 |
| GGAGACUAUGAAAAAAUCCTT against Anxa1 | inactive: -1.13 |
| CCAGCUACCAGCUGUUUAATT against Txn1 | inactive: -1.2 |
| GGACGACUACAACUACUACTT against Slc18a3 | inactive: 0.794 |

Looked up above:
z-score with GCGGAGAUGUACACAAAAGTT against Nqo2 is entered as inactive: -1.01
z-score with CCAAGGGUAUGUCCAUCAUTT against Gm5154 is entered as inactive: 0.408
z-score with GGCUUGAUCCUUAGCUUAATT against Gpld1 is entered as inactive: 0.127
z-score with GGGCACCUUAUACCAUAGATT against Bfar is entered as inactive: 0.345
z-score with CCAACACAACUGGUAAAAUTT against Plcb4 is entered as inactive: 0.26

Following part.

| Sequence | z-score |
| --- | --- |
| GCUUCUCAAAUCUAGGAUCTT against Kcnj2 | inactive: -0.525 |
| GCCAGUCAUCUUUGUAGUCTT against Olfr411 | inactive: -0.777 |
| GGACAAUUGUCGACUGUUCTT against Thbs3 | inactive: -0.206 |
| GGUGGUAAAUCGAAUUGUUTT against Tmem185b | inactive: -0.171 |
| GCCAGAAUAAACAUUAGUGTT against Ccdc54 | inactive: -0.478 |
| GGAUGCUGAAGUAAUAGUGTT against Tbc1d15 | inactive: 0.0714 |
| GGCACCCUCAAGAAAGCGUTT against Nol6 | inactive: -1.34 |
| GGUCCAAUCGACAACACUATT against Usp33 | inactive: 0.359 |
| CCUACUAUAGUACCAACCATT against Rnf111 | inactive: -0.683 |
| GGGAAAAAGCUGGGAAUAUTT against Zbtb38 | inactive: -0.721 |
| GGAUGACGACUGCACUUACTT against Itgb4 | inactive: 1.21 |
| GGAGAAUAUUGAGUCCUUCTT against Slc2a5 | inactive: 0.525 |
| GGUUUCCCUAGGAAAAAACTT against Klk1b9 | inactive: -1.73 |
| GCAGACCAUGGCCUCAGAUTT against Sh3bp1 | inactive: 0.179 |
| GGAUUUUAGAAGUAAUGGGTT against Zbtb32 | inactive: -0.928 |
| GCUGCGCAGUUUAGAAGAGTT against Rab24 | inactive: 0.781 |
| GGCAUCAUAAAGCCAGGCATT against Sybu | active: -2.42 |
| GCUAGAGACGAGAAGAUGATT against Ano10 | active: -2.47 |
| GCGUAGACUUGAGGACUUATT against Uimc1 | inactive: -0.705 |

Quoted at random: 2 entries already listed, in no set order.

| Sequence | z-score |
| --- | --- |
| GCUGCGCAGUUUAGAAGAGTT against Rab24 | inactive: 0.781 |
| GCCAGAAUAAACAUUAGUGTT against Ccdc54 | inactive: -0.478 |

Source: PubChem BioAssay AID1508600 (Functional Genomics Laboratory (NCATS/FGL), 2020)
